The record followed here is article PMC6333852.

Results are given in words; binding and its absence hold for the method and conditions named. Binding seen in cells or lysates may run through a third protein. Here binding means that the protein was enriched with, or labelled near, the bait; the list need not be complete.

This experiment concerns the target epidermal growth factor receptor (EGFR) (human (endogenous in hBMECs)) (UniProt P00533). The experiment can be described thus: affinity purification with mass spectrometry; anti-EGFR antibody immunoprecipitation from lysates of control and infected (PCN033, SC19) hBMECs; SDS-PAGE bands identified by mass spectrum analysis.

For the substance “α-actinin-4 (ACTN4) (from UniProt O43707 1-911)”, the binding entry is reported as “binds”.
